Results: paper PMC7718874, “Coupling of H3K27me3 recognition with transcriptional repression through the BAH-PHD-CPL2 complex in Arabidopsis” (Nature Communications, 2020)

T1: ASI1-IMMUNO… PROTEIN 3 (AIPP3), epitope-tagged in transgenic Arabidopsis (Arabidopsis) (UniProt Q8RXT5)
T1 sequence: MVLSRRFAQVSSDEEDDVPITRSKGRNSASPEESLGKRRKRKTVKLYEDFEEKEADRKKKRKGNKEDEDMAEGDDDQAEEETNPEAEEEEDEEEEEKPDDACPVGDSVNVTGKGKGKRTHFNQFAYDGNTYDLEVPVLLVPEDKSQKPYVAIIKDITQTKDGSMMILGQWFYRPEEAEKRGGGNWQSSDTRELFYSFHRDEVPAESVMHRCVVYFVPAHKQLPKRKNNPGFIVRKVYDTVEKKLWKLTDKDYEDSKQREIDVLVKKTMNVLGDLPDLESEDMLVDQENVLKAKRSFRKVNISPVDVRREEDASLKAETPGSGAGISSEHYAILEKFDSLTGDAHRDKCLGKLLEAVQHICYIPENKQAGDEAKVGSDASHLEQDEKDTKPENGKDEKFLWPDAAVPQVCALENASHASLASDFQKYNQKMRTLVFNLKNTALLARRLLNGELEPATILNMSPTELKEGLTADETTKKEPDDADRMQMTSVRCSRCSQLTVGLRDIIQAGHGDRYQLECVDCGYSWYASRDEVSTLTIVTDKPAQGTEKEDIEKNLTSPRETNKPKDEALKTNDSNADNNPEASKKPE

T2: CPL2, epitope-tagged in transgenic Arabidopsis (Arabidopsis) (UniProt Q5YDB5)
T2 sequence: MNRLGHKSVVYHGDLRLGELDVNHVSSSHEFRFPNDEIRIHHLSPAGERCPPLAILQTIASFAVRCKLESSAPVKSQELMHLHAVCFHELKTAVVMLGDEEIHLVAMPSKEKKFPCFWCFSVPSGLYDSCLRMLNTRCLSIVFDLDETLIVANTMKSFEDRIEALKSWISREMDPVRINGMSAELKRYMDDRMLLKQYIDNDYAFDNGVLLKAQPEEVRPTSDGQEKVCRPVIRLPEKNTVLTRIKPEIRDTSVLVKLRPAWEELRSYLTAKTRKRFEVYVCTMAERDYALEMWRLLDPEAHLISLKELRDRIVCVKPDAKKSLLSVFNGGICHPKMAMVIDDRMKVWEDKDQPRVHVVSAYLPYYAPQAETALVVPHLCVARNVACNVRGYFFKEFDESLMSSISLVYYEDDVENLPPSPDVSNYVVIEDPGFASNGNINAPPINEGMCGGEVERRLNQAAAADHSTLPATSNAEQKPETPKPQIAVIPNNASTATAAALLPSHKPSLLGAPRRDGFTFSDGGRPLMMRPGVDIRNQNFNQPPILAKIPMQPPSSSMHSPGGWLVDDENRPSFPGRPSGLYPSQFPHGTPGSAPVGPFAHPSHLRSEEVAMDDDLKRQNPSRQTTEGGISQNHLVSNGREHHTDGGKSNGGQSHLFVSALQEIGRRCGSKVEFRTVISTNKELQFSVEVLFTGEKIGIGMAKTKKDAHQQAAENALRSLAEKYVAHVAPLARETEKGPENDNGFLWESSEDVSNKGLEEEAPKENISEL

T3: AIPP2, epitope-tagged in transgenic Arabidopsis (Arabidopsis) (UniProt F4IYH6)
T3 sequence: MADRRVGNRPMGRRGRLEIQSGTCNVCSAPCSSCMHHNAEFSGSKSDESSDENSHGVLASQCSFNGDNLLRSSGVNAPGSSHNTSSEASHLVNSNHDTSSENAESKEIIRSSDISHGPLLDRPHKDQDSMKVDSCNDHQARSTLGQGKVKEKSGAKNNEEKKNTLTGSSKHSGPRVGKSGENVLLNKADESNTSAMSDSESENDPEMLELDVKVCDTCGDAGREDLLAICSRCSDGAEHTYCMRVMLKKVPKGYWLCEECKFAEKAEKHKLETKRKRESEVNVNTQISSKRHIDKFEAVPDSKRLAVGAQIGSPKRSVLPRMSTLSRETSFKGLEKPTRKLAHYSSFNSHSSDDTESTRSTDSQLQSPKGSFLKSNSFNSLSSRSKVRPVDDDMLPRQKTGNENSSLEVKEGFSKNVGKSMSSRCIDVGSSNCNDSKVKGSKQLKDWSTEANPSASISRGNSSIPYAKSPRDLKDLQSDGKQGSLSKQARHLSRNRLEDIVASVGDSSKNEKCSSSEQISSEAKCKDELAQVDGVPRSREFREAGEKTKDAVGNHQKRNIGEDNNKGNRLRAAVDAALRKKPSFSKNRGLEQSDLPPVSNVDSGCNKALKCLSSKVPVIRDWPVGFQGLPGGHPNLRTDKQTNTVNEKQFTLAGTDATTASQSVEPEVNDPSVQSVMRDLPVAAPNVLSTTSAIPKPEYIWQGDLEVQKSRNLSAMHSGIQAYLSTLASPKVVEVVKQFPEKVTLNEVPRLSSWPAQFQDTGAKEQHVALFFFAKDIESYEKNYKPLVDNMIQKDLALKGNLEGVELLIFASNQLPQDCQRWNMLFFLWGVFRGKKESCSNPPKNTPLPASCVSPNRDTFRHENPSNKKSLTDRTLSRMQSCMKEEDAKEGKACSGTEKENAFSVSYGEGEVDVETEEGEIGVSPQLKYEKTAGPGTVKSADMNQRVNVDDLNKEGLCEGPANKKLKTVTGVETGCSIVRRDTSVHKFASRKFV


Assays:
Experiment in all cases: affinity purification with mass spectrometry; total proteins of inflorescence tissues of epitope-tagged transgenic plants in IP buffer (50 mM Tris-HCl pH 7.6, 150 mM NaCl, 5 mM MgCl2, 10% glycerol, 0.1% NP-40, 0.5 mM DTT), precipitated with anti-Flag or anti-Myc antibodies 2 h at 4 °C, five washes, MS
[1] = target: T1, ASI1-IMMUNO… PROTEIN 3 (AIPP3), epitope-tagged in transgenic Arabidopsis (Arabidopsis)
[2] = target: T2, CPL2, epitope-tagged in transgenic Arabidopsis (Arabidopsis)
[3] = target: T3, AIPP2, epitope-tagged in transgenic Arabidopsis (Arabidopsis)

binding [1] | binding [2] | binding [3] | Binder
binds | binds |  | AIPP2, epitope-tagged in transgenic Arabidopsis (protein, UniProt F4IYH6 1-994) MADRRVGNRPMGRRGRLEIQSGTCNVCSAPCSSCMHHNAEFSGSKSDESSDENSHGVLASQCSFNGDNLLRSSGVNAPGSSHNTSSEASHLVNSNHDTSSENAESKEIIRSSDISHGPLLDRPHKDQDSMKVDSCNDHQARSTLGQGKVKEKSGAKNNEEKKNTLTGSSKHSGPRVGKSGENVLLNKADESNTSAMSDSESENDPEMLELDVKVCDTCGDAGREDLLAICSRCSDGAEHTYCMRVMLKKVPKGYWLCEECKFAEKAEKHKLETKRKRESEVNVNTQISSKRHIDKFEAVPDSKRLAVGAQIGSPKRSVLPRMSTLSRETSFKGLEKPTRKLAHYSSFNSHSSDDTESTRSTDSQLQSPKGSFLKSNSFNSLSSRSKVRPVDDDMLPRQKTGNENSSLEVKEGFSKNVGKSMSSRCIDVGSSNCNDSKVKGSKQLKDWSTEANPSASISRGNSSIPYAKSPRDLKDLQSDGKQGSLSKQARHLSRNRLEDIVASVGDSSKNEKCSSSEQISSEAKCKDELAQVDGVPRSREFREAGEKTKDAVGNHQKRNIGEDNNKGNRLRAAVDAALRKKPSFSKNRGLEQSDLPPVSNVDSGCNKALKCLSSKVPVIRDWPVGFQGLPGGHPNLRTDKQTNTVNEKQFTLAGTDATTASQSVEPEVNDPSVQSVMRDLPVAAPNVLSTTSAIPKPEYIWQGDLEVQKSRNLSAMHSGIQAYLSTLASPKVVEVVKQFPEKVTLNEVPRLSSWPAQFQDTGAKEQHVALFFFAKDIESYEKNYKPLVDNMIQKDLALKGNLEGVELLIFASNQLPQDCQRWNMLFFLWGVFRGKKESCSNPPKNTPLPASCVSPNRDTFRHENPSNKKSLTDRTLSRMQSCMKEEDAKEGKACSGTEKENAFSVSYGEGEVDVETEEGEIGVSPQLKYEKTAGPGTVKSADMNQRVNVDDLNKEGLCEGPANKKLKTVTGVETGCSIVRRDTSVHKFASRKFV
no binding | no binding | no binding | anti-silencing 1 (ASI1) (protein, UniProt Q9LYE3 1-650) MEESVASEGLEFKWGKKKGVGGKKKDVQFYESFTYDGDEYRLYDCVLVGNASEPDSTEPFIGMIIKIWEHANKHIPKKVKLLWFFKPSEIAPYLEGVPNVLANEVFLASGEGLGLANTNQLEAIGGKCSVLCISKDKRNPQPSDEKFNSADFVFCRAFDVGSCKVVDTIDDKIAGVDVKFIFNRACSEKEATAVQNIEADVNGKSDSLKPNGPLARGASGSVRKIEDSAFESSDCKENSNGCKEEKEKGHYQLAIKKSTLAEERSNKDSGSRGNHYNGKDQESEVKKQLTKQKSMPGEERYSNSFEASGSRTIHSISKKAQENDVKKQLTKQKSMPAGERYSQESSGLDDRPLKKQKLDGSVTVRDGWDTTILQNITSDGKKDTGSFKRPRDKVTIEEVPPEKRSFVKNRDLVVSVSEGKTTKTVTEKGISKKPSFGRAEDKMSADDNERNYQVTEVCRRPDAGKSKWFRSLPWEESMREAEKKGTVVLLQNLDPTYTSDEVEDIVYSALNQQCEARMIERTSVTIPHIGEALVIFKTREVAERVIRRLDEGCLLLSSGRPLVASFAKITPPGKPSLFSGHIKLHKTQTRREMRDAVATSHSSQPNNLEFDMAMEWCLHQARHEQASESVSKRQLEEMKSLRINFKLKLP
binds | binds |  | PARALOG OF AIPP2 (PAIPP2), epitope-tagged in transgenic Arabidopsis (protein, UniProt F4KE59 1-1311) MADRRVGKRQMGQRGFSKVESGTCNVCSAPCSSCMHRNVGFTGSKLDESSDENCHGVVGSQCSVNEDDLLPSSMVNAHKSLNNTASEASNLVNSSHDALSENAESKETIRCSGISDDSGAAAMTSKPSLSGSRMKHKVSASANMLDQSSNCIEDQEDGILSADRAKQLKSGCSNNEIGNKDLADGSALNSDPIPGGSRKDEVKLESLQNPSSNHDDRVSSEKGNFKEKSRPGGNKERQEPSVEGSTRSGENRKDGKSSKSSSSNSSAVSESESDDSEMVEHDVKVCDICGDAGREDLLAICSGCSDGAEHTYCMREMLDEVPEGDWLCEECAEEAEKQKQEAKRKRETEVTFNTYSSGKRHADKIEAAPDAKRQVVEASTGSPKKSILPRVGALSRETSFKGLDRLRGKLNHQTSFSDDTESARSAGSQLQPPKGAFLKSSSFNCSSSKPKVQLMDDAIHPRQKTGKEDTALDLKVGGFRNVGKSMPSRTTDAGNSGGSDSQAKMLGSKVYHSQEGKSLKQVKDRNREANASASSIDQKLKSRGNSSVSHANNNRDLKGLQSDGKRGNLTKQVSNLSRNRLENSVVSGGDISTNEKCSASEQSSSQADCKDELPSTSCTGEGMPNHGTVALQDGLPRSRVPREVGKKSKEAFSKRQRSSLLAGAKGLPSSQKGGQTAESSDTSGVSDSDLSTTKNVKEDLNKGNRLRAAVDAALRKKPSFGKNRVLEQSDASLVANVDSSSEKTLRNQLPSKMHKNHVSHEGLQGGHPILWPTSDPYKQTIVTNEKQLIFPGADTIPSRLVEPEVSFPAVKPVMRDLPLVPSPVMLRSSAIPDHEFIWQGDLEVRKIINQSAMHSGIQAHLSTLASPRVAEVVNKFPETFSLNEVPRKSTWPTQFEKLGTKEAHIALFFFAKDTESYERNYKPLVDNMIKNDLALKGNLDNVDLLIFASNQLPSNCQRWNMLYFLWGVFQGRKETNPQKNTSLPTSNVLPRDRDPKELCQTSSPSKHLEKGSSLRESSSNGIETRNGTDARSHENPNNRESSIERSPSKKEDIALKVEEAGVNHIPPQVTGSNSGDSLVRKVQKVEEQELGGRKDLPLTVMGSGIQSHGQDNPLEKDLNSSQASHRKRPLWELSNPANENSSAINQKVELNNDGLCEGSPNKKLKTENGSSSLCRDTSGHDSGIMKKSPKVVFPLDLNDDSEMVDNLSPLGNDENNNNRRLISGTVPNLELALGAEETTEATMGLLPFLSRSSNSGEQSNNSMNKEKQKADEEEEDDAEVAASLSLSLSFPGTEERKNVNTPLFLFRDLPR

Results are given in words; binding and its absence hold for the method and conditions named. In cells and extracts the contact can be indirect. These calls come from enrichment with a bait or labelling near it, and not all partners need be listed. A no says only that the protein was not detected with the bait. Where a sequence is shown, tags or fusion partners need not be part of it.
